Measurements from the supplement of paper PMC10338343.
± gives the standard deviation. This is a selection; strong and weak results do not stand in their true shares. The uncertainty is large for many entries.

Tests used:
[1] = system: MILI (PIWIL2) piRISC loaded with piRNA #1 (26 nt); assay: pre-steady-state target cleavage rate (min^-1); higher = faster piRNA-guided slicing of the target; settings: guide: piRNA #1 5'p-UGAGGUAGUAGGUUGUAUAGUAUCCA; auxiliary factor: 500 nM mouse GTSF1
Procedure, shortened: (§1)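 In this Cleave-'n-Seq assay, uncleaved targets were sequenced and normalised to depth and to weakly complementary targets. They came from a transcribed, DNA-blocked target RNA library […] mixed with 1 nM active affinity-purified piRISC carrying one synthetic guide, with or without 500 nM GTSF1 partner protein, in HEPES–potassium acetate buffer at 33 °C for 0–8 or 0–960 min. After three trials were pooled and k3 was capped at 0.0001 min^-1, the pre-steady-state cleavage rate was obtained from a burst-and-steady-state fit.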

[2] = system: MIWI (PIWIL1) piRISC loaded with piRNA #1 (30 nt); assay: as above; settings: guide: piRNA #1 5'p-UGAGGUAGUAGGUUGUAUAGUAUCCAGAGG; auxiliary factor: 500 nM mouse GTSF1
Procedure, shortened: as §1

[3] = system: EfPiwi piRISC loaded with piRNA #1 (26 nt); assay: pre-steady-state target cleavage rate (min^-1); guide: piRNA #1 5'p-UGAGGUAGUAGGUUGUAUAGUAUCCA; MIWI and MILI are mouse PIWI proteins and EfPiwi is from a freshwater sponge; tags in brackets are library labels; higher = faster piRNA-guided slicing of the target; settings: auxiliary factor: 500 nM Ephydatia muelleri Gtsf1
Procedure, shortened: as §1

Row | Sequence | pre-steady-state target cleavage rate [1] | pre-steady-state target cleavage rate [2] | pre-steady-state target cleavage rate [3]
1 | GGAGACCUAUGAUAACAAACCUACUACCUCA | 0.00137 ± 0.005 | 0.000137 ± 0.024 | 0.000856 ± 0.0062
2 | GGAGAGGAUACUAUACAACGUAGUACCUCA | 0.000825 ± 0.0093 | 0.00148 ± 0.0053 | 0.00159 ± 0.0023
3 | GGAGACCUAUGAUAACAACCUACUACAUCA | 0.00146 ± 0.0037 | 0.00237 ± 0.0043 | 0.000256 ± 0.0099
4 | GGAGACCUAUGAUUACAACGUACUACGUCA | 0.00138 ± 0.0045 | 0.00139 ± 0.0046 | 0.000592 ± 0.0045
5 | GGAGACCUAUGAUAACUACCUUCUACCUCA | 0.000899 ± 0.0073 | 0.000281 ± 0.01 | 0.000762 ± 0.008
6 | GGAGACCUAUGAUUACAACCGACUACCUCA | 0.00325 ± 0.0034 | 0.000607 ± 0.0078 | 0.000692 ± 0.0097
7 | GGAGACCUAUGAAUACAACCGUACUACCUCA | 0.00389 ± 0.003 | 0.000878 ± 0.0056 | 0.00053 ± 0.016
8 | GGAGACCUAUGAUUACAACGUAGUACCUCA | 0.000617 ± 0.01 | 0.000732 ± 0.0063 | 0.00201 ± 0.0058
9 | GGAGACCUAUGAUUACAACGAUCUACCUCA | 0.00115 ± 0.0056 | 0.000541 ± 0.0086 | 0.000745 ± 0.0066
10 | GGAGACCUAUGAUAUGUUCCAACUACGUCA | 0.000553 ± 0.011 | 0.000984 ± 0.0062 | 0.00102 ± 0.0043
11 | GGAGACCUAUGAUAUGUACCUCCUACCUCA | 0.000165 ± 0.016 | 0.000159 ± 0.017 | 0.000605 ± 0.011
12 | GGAGACCUAUGAUAUGUACCAUACUACCUCA | 0.000406 ± 0.013 | 0.000583 ± 0.0096 | 0.000678 ± 0.01
13 | GGAGACCUAUGAUAUCAAGCUACUACGUCA | 0.000953 ± 0.008 | 0.000686 ± 0.0081 | 0.000571 ± 0.0039
14 | GGAGACCUAACUAUACAACGAACUACCUCA | 0.0033 ± 0.0053 | 0.000119 ± 0.047 | < 0.0001
15 | GGAGACGAUACUAUACAACGAUCUACCUCA | 0.0015 ± 0.0044 | 0.00152 ± 0.0048 | 0.00224 ± 0.0026
16 | GGAGACCUAUGAUAACAACCUACUACCUGA | 0.00163 ± 0.0032 | 0.000377 ± 0.0056 | 0.000876 ± 0.0059
17 | GGAGACCUAUGAUAACCACCUACUACCUCA | 0.00152 ± 0.0041 | 0.000266 ± 0.0087 | 0.000595 ± 0.015
18 | GGAGACCUAUGAUAUCUACGUACUACCUCA | 0.000255 ± 0.008 | 0.000185 ± 0.0096 | 0.00023 ± 0.011
19 | GGAGACCUAUGAUAACAUCCUACUACCACA | 0.00266 ± 0.0037 | 0.000651 ± 0.0082 | 0.000246 ± 0.018
20 | GGAGAGGAUACUAUACAACCUACAUGGAGA [g8:g25:cont:t1A] | 0.00136 ± 0.0042 | 0.0022 ± 0.0043 | 0.00223 ± 0.0029
21 | GGAGACCUAUGAUUACAAUCUACUACCUCA | 0.00319 ± 0.0026 | 0.00077 ± 0.0059 | 0.00159 ± 0.0049
22 | GGAGACCUAUCUAUACUAACCUACUACCUCA | 0.000617 ± 0.0094 | 0.000502 ± 0.0093 | 0.000992 ± 0.0052
23 | GGAGACCUAUGAUAUGUUGCUUCUACCUCA | 0.000407 ± 0.0092 | 0.000524 ± 0.01 | 0.000616 ± 0.0069
24 | GGAGACCUAUGAAUACAACCUUCUUCCUCA | 0.00127 ± 0.0044 | 0.000292 ± 0.0077 | 0.000303 ± 0.0098
25 | GGAGACCUAUGAUAUGUUGGUACAUCCUCA | 0.000473 ± 0.011 | 0.000596 ± 0.0075 | 0.000134 ± 0.014

Look-ups from the results shown.
GGAGACCUAUGAUAUGUACCUCCUACCUCA – pre-steady-state target cleavage rate [3]: 0.000605 ± 0.011
GGAGACCUAUGAAUACAACCGUACUACCUCA – pre-steady-state target cleavage rate [1]: 0.00389 ± 0.003
GGAGACCUAUGAUAUCUACGUACUACCUCA – pre-steady-state target cleavage rate [3]: 0.00023 ± 0.011

Additional records follow:

Row | Sequence | pre-steady-state target cleavage rate [1] | pre-steady-state target cleavage rate [2] | pre-steady-state target cleavage rate [3]
26 | GGAGACCUAUGAUAACAACGUACUACGUCA | 0.000669 ± 0.0075 | 0.000631 ± 0.0075 | 0.000852 ± 0.004
27 | GGAGACCUAUGAUAUGAACAUACUACCUCA | 0.000153 ± 0.021 | 0.000122 ± 0.021 | 0.000704 ± 0.011
28 | GGAGACCUAUGAUAACAACGUACUACCUGA | 0.00117 ± 0.0053 | 0.000215 ± 0.008 | 0.00134 ± 0.006
29 | GGAGACCUAUGAAUACAACCCACUACCUCA | 0.00357 ± 0.0039 | 0.00115 ± 0.0056 | 0.00112 ± 0.008
30 | GGAGACCAUACUAUACAAGCCUACUACCUCA | 0.00281 ± 0.0049 | 0.00117 ± 0.0082 | 0.00453 ± 0.0032
31 | GGAGACCUAUGAUAUGUUGAUACUACCUCA | 0.000337 ± 0.01 | 0.000933 ± 0.0039 | 0.000383 ± 0.0048
32 | GGAGACCUAUGUAUACAAUCCUACUACCUCA | 0.000894 ± 0.0089 | 0.000507 ± 0.012 | 0.00119 ± 0.0063
33 | GGAGACCUAUGAUAACAAGCUACAACCUCA | 0.0095 ± 0.0029 | 0.000209 ± 0.0089 | 0.000995 ± 0.0093
34 | GGAGACCUAUGAUUACAACCUACAAGCUCA | 0.00117 ± 0.0058 | 0.000137 ± 0.012 | 0.000254 ± 0.014
35 | GGAGACCUAUGAUAUCAACCUUCUACCUCA | 0.0016 ± 0.003 | 0.000338 ± 0.006 | 0.000695 ± 0.0072
36 | GGAGACCUAUGAUAUUAACCUACUACCUCA | 0.000603 ± 0.0081 | 0.00013 ± 0.02 | 0.000323 ± 0.0096
37 | GGAGACCUAUGUAAACAACCUACAACCUCA | 0.0135 ± 0.0041 | 0.000766 ± 0.0071 | 0.000106 ± 0.025
38 | GGAGACCUAUGAUUACUACCUACUACGUCA | 0.00124 ± 0.0054 | 0.000333 ± 0.0071 | 0.00105 ± 0.0065
39 | GGAGACCUAUGUAAACAACCAACUACCUCA | 0.0019 ± 0.004 | 0.000201 ± 0.014 | 0.000197 ± 0.019
40 | GGAGACCUAUGUAUAGAACCUACAACCUCA | 0.00197 ± 0.0022 | 0.000268 ± 0.013 | 0.000152 ± 0.024
41 | GGAGACCUAUGAUAUGUUGCUAGUUCCUCA | 0.00054 ± 0.011 | 0.00042 ± 0.012 | 0.000445 ± 0.0074
42 | GGAGACCAUACUAUAGAACCUACAACCUCA | 0.000558 ± 0.0043 | 0.00177 ± 0.0021 | 0.00069 ± 0.0056
43 | GGAGACCUAUGAAUACAACCUAGUACCUCA | 0.00177 ± 0.0027 | 0.00146 ± 0.0016 | 0.00145 ± 0.0031
44 | GGAGACCUAUGAUUCACAACCUACUACCUCA | 0.00321 ± 0.0032 | 0.0011 ± 0.0066 | 0.00142 ± 0.0052
45 | GGAGACCUAUGAUAACAACCAUCUACCUCA | 0.0023 ± 0.0026 | 0.00019 ± 0.012 | 0.000199 ± 0.012
46 | GGAGACCUAUGAUAUCAACGUACUUCCUCA | 0.000205 ± 0.015 | 0.000354 ± 0.0093 | 0.00101 ± 0.0074
47 | GGAGACCUAUGAUAUCAACCAACUACCACA | 0.000212 ± 0.018 | 0.00013 ± 0.023 | 0.000237 ± 0.026
48 | GGAGACCUAUCUAUACAACACUACUACCUCA | 0.000913 ± 0.0084 | 0.000259 ± 0.021 | 0.000675 ± 0.0096
49 | GGAGACCUAUGAUUACAACCAUACUACCUCA | 0.000766 ± 0.0047 | 0.000249 ± 0.0069 | 0.000736 ± 0.01
50 | GGAGACCUAUGAUAUGUUGCUACUUCCUCA | 0.000276 ± 0.011 | 0.000468 ± 0.0061 | 0.00114 ± 0.0055
